According to publication PMC12866828:
No constants are given. Whether binding was seen depends on the method and setting. Binding seen in cells or lysates may run through a third protein. These calls come from enrichment with a bait or labelling near it, and not all partners need be listed.

Sequences of proteins named here, by UniProt entry; tags and fusion partners are left off. Residues count along the entry.
UniProt P50592: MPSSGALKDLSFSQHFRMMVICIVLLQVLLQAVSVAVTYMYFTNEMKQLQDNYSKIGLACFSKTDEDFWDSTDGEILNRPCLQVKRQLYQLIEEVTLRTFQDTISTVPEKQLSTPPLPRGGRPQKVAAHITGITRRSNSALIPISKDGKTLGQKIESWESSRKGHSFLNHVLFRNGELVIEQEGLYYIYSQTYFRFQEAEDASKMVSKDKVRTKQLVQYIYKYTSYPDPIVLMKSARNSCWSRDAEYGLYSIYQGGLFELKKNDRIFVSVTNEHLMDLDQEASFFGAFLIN
UniProt O70472, residues 21-1877: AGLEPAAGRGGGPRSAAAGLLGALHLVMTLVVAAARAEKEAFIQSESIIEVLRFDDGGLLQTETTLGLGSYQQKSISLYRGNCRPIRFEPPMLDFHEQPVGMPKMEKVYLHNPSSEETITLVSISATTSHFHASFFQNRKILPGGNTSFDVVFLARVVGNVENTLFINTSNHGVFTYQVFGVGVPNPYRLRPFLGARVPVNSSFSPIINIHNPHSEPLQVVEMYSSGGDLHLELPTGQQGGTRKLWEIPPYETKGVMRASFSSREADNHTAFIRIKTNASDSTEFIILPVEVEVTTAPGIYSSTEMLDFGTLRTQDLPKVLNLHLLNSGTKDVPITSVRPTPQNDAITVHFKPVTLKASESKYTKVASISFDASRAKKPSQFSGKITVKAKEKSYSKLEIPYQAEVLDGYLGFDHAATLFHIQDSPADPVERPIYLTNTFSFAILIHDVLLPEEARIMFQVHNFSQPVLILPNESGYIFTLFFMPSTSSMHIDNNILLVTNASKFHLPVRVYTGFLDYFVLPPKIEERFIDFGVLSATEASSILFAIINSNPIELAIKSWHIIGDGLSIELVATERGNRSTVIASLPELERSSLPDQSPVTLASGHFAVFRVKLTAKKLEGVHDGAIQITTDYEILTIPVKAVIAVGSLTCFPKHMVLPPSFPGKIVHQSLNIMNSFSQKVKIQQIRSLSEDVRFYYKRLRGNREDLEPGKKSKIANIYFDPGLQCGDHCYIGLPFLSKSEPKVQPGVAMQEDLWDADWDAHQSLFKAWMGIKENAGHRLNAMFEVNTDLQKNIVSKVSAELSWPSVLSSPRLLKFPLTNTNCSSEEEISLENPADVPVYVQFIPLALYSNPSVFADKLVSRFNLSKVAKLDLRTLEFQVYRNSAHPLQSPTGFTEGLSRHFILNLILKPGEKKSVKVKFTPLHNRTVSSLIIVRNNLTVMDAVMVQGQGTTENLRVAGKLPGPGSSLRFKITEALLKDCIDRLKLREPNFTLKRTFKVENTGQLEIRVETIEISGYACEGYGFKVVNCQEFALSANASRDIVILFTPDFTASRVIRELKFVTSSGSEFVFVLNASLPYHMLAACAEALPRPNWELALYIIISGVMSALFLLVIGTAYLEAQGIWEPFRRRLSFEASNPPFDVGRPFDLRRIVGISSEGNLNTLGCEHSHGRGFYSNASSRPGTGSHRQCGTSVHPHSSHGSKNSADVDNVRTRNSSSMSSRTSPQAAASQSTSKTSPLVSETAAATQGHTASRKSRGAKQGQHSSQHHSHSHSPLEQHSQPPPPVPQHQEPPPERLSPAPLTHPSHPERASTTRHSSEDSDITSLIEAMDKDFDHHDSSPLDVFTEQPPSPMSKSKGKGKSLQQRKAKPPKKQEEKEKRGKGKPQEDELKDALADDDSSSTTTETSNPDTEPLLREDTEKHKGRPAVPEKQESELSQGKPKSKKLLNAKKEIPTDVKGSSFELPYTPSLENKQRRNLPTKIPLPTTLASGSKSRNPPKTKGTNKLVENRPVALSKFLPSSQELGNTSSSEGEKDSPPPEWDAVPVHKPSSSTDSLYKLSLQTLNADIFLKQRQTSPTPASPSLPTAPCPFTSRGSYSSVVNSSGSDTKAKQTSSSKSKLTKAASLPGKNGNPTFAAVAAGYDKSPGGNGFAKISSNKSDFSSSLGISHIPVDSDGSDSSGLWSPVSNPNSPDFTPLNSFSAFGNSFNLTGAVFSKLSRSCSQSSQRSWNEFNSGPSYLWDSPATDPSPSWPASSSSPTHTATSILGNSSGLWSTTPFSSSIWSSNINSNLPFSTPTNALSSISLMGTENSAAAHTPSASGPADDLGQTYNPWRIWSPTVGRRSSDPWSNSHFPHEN

Target: Tumor necrosis factor (TNF)‐related apoptosis‐inducing ligand (TRAIL) (mouse (endogenous in MLE-12)) (UniProt P50592)
Assay: affinity purification with mass spectrometry; MLE-12 cell lysates immunoprecipitated with a specific antibody (for TRAIL or TMEM131) or isotype antibody, protein A/G beads, 4 °C overnight, 5 washes with NP-40 lysis buffer, LC-MS/MS

TMEM131 (from UniProt O70472 21-1877)
binding: binds
